These are yes or no findings as the source states them, for the method shown. In cells and extracts the contact can be indirect. Some binding calls cover weakened binding; strength is not graded here.

Amino acid sequences for entries named in this document (tags omitted). A change or cut given only in a name is not applied to a line headed by its entry.
UniProt Q86T13: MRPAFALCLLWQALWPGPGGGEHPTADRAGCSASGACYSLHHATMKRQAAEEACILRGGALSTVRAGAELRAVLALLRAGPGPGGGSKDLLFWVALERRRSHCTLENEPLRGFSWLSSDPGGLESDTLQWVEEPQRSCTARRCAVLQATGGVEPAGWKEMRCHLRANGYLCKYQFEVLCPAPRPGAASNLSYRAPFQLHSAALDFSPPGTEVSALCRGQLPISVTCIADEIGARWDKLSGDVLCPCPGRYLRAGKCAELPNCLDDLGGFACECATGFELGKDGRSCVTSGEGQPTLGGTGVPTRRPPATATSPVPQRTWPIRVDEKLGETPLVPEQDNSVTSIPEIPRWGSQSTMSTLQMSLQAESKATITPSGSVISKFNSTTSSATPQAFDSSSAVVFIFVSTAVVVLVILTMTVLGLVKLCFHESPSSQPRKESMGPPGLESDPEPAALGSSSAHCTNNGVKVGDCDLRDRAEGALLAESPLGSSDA

In this experiment the target is human CLEC14A extracellular domain protein tagged with human Fc (human) (UniProt Q86T13). Nature of the experiment: pre-incubation of CLEC14A-ECD-Fc with antibody before MMRN2 pull-down.

B1: CLEC14A monoclonal antibody C4 (antibody, V domains shown)
VH: QVQLQQSGAELMKPGASVKISCKATGYTFSSYWIEWVNRRPGHGLEWIGEILPGSGSTNYNEKFKGKATFTADTSSNTAYMQLSSLTSEDSAVYYCARGGDYDEEYYLMDYWGQGTTLTVSS
VL: QIVLTQSPAIMSASPGEKVTMTCSASSSVSYMYWYQQKPGSSPRLLIYDTSNLASGVPVRFSGSGSGTSYSLTISRMEAEDAATYYCQQWSSYPLTFGAGTKLEIKR
Take B1: the binding entry is recorded as “binds”.

Source of the values: patent US20180282418A1.
